No constants are given. Whether binding was seen depends on the method and setting.

For this assay, the target named is SteC_(210-429;K256H), inactive variant (Salmonella Typhimurium strain 14028s) (UniProt D0ZIB5). In words: SEC-MALS; both purified. (In gel filtration, larger molecules generally elute earlier.)

“SteC_(210-429;K256H), inactive variant (from UniProt D0ZIB5 210-429) (domain or fragment)”: the binding result is “no binding (tested: up to 8 mg/ml)”.

The record behind these values is publication PMC13395416 (PLOS Pathogens, 2026).
